Experimental data as given in article PMC10269899.

Molecular target: DivIVA (cell division initiation protein) (Streptococcus suis (endogenous in strain SC-19))
Test: affinity purification with mass spectrometry; anti-DivIVA mouse serum with protein A and protein G on lysate of S. suis SC-19 cells cross-linked with 0.1% paraformaldehyde; control: lysate of the divIVA deletion strain; wash 50 mM Tris-HCl, 150 mM NaCl, 1% Nonidet P-40, 0.05% sodium deoxycholate; Q Exactive Plus, MaxQuant

B1: 50S ribosomal protein L35 (protein, UniProt A4VVU6 1-66)
chain: MPKQKTHRASAKRFKRTGSGGLKRFRAYTSHRFHGKTKKQRRHLRKAGMVHAGDFKRIKSMLTGLK
binding: binds

B2: 50S ribosomal protein L33 (peptide, UniProt A4VT05 1-49)
chain: MRVNITLEHKESGERLYLTSKNKRNTPDRLQLKKYSPKLRKHVIFTEVK
binding: binds

B3: UDP-N-acetylmuramoyl-L-alanyl-D-glutamate-L-lysine ligase (protein, UniProt A4VU28 1-481)
chain: MITIERVLEILKADANFRHIKQNDQTDSTWTDVQFDALSYDSRTVSPMTLFFAKGLAFKKEFLEKAIEAGLAFYVSEINYEVGIPAIIVHDIKQAMSLIAMEFHGHPQKQLKLLAFTGTKGKTTAAYFAFNILKQSKKPAMLSTMNTTLDGKTFFKSTLTTPESLDLFAMMAEAVKNGMTHLIMEVSSQAYLVKRVYGLTFDVGVFLNISPDHIGPIEHPTFEDYFYHKRLLMDNSRAVIVNAGMDHFEVVKEQVSSKDHDFYGPTSENQISQSAGFDFTATGKLAGHYDIQLIGGFNQENAIAAGLACLRLGASLEDIHTGIAQTNVPGRMEVLTQQNGAKVFVDYAHNGDSVKKLIDVVLEHQTGKVFLILGAPGNKGESRRKDFGLLLNDYPQIEVILTADDPNREDPAAIAEQIRAHMTRTSNFILDREEAIRTAMSQTSSPKDAVIIAGKGADAYQIVNGEKAAYDGDLEVAKQYL
binding: binds

B4: Cytidylate kinase (protein, UniProt A4VVU8 1-225)
chain: MKSIQIAIDGPASSGKSTVAKIIAKNLGYTYLDTGAMYRSATYLALTNGIEVTDQNRIVDLLAQYPIRFGRDENGQQLVFVGDEDVTLPIRDNQVTNNVSAVAALPLVREELVRLQQDIAQAGGIVMDGRDIGTVVLPQAELKIFLVASVEERALRRFKENTERGIETDLESLKEEIAARDYKDSNREVSPLKAADDAITFDTTGVSIEGVVKFISEKAKEILDR
binding: binds

No constants are given. Whether binding was seen depends on the method and setting. Binding seen in cells or lysates may run through a third protein. Here binding means that the protein was enriched with, or labelled near, the bait; the list need not be complete.
